According to PMC7321188:
These are yes or no findings as the source states them, for the method shown. For some of these results: In cells and extracts the contact can be indirect. Some binding calls cover weakened binding; strength is not graded here.

Amino acid sequences for entries named in this document (tags omitted). A change or cut given only in a name is not applied to a line headed by its entry.
UniProt Q99962: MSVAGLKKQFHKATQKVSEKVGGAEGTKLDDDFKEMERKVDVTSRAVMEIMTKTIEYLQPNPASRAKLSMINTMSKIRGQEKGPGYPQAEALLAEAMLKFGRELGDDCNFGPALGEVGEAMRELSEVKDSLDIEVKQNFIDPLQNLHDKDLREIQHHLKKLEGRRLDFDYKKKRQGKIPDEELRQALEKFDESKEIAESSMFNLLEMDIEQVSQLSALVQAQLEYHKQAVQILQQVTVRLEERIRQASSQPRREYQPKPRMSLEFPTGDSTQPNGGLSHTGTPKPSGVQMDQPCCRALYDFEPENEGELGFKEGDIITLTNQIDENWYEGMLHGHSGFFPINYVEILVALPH
UniProt Q5S007: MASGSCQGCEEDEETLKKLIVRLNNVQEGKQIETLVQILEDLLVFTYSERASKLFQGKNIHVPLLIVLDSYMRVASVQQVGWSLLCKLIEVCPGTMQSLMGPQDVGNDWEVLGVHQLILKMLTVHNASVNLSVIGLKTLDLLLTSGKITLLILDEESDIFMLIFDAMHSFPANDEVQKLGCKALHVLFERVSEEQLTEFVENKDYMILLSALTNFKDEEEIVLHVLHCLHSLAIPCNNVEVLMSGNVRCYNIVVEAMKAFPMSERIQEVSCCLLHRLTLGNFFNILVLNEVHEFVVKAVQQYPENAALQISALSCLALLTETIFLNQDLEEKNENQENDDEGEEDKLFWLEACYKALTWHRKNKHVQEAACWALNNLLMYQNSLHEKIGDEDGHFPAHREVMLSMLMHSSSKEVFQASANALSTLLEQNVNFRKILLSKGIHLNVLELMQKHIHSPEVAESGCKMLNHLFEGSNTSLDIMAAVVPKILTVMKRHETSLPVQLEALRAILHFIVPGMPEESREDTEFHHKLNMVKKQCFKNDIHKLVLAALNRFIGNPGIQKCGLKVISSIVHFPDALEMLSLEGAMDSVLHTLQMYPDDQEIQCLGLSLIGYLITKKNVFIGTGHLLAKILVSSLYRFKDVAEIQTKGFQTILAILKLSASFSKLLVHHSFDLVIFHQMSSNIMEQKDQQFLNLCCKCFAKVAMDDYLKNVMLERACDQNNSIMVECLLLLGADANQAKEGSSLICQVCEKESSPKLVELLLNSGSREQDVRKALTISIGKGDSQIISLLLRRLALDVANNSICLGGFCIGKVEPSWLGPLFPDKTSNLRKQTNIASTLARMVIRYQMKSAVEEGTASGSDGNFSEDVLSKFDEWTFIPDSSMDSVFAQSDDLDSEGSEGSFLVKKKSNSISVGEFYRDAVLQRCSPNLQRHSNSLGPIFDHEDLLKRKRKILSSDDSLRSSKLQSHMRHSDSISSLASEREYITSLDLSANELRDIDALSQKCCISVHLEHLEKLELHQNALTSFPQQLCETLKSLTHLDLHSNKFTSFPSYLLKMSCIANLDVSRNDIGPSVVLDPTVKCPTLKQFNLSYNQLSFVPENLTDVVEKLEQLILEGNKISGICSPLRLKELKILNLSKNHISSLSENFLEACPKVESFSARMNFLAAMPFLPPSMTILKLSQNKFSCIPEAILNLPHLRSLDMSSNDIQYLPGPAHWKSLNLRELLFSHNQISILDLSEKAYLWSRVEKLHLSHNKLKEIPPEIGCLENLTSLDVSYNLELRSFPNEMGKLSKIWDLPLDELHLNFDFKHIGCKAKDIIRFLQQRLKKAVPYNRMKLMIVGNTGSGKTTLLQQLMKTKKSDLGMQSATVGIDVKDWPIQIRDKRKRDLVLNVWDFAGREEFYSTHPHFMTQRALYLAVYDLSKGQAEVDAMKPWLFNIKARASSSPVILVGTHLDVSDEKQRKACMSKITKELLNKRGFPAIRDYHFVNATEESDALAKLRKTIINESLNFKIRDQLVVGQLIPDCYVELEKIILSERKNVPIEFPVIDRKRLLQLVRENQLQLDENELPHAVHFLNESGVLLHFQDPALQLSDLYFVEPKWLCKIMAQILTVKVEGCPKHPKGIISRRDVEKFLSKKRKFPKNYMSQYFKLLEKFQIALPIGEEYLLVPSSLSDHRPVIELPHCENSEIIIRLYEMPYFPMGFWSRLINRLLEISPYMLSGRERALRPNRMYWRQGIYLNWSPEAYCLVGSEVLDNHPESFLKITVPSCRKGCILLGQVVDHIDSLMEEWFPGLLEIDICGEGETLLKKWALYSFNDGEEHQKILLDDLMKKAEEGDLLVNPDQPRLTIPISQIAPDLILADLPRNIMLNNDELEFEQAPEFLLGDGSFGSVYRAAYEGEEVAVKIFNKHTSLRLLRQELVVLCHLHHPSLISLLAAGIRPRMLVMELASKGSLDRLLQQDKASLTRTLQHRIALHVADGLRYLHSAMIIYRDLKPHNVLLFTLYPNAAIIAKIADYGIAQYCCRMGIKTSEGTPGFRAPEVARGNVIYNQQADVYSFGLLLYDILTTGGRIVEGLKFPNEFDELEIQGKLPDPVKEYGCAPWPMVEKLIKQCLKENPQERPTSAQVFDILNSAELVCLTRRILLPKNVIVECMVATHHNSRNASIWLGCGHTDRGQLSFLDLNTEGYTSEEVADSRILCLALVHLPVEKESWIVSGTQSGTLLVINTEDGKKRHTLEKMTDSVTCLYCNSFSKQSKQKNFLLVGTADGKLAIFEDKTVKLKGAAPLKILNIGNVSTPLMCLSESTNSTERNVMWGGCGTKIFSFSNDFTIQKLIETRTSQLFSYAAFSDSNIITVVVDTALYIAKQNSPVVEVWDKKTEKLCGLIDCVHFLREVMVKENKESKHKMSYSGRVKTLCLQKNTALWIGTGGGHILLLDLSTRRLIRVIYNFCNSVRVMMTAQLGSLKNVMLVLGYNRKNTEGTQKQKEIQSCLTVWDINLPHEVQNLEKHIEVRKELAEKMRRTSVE

Tests used:
[1] = target: Endophilin A1-mCherry (UniProt Q99962); experiment: FRET or BRET; FLIM/FRET with phasor analysis, GFP donor lifetime, two-photon excitation at 920 nm, live differentiated SH-SY5Y cells co-expressing LRRK2-GFP and EndoA1-mCherry
[2] = target: Endophilin A1-mCherry (UniProt Q99962); experiment: cross-correlation raster image correlation spectroscopy (ccRICS); two-photon excitation at 1000 nm, live differentiated SH-SY5Y cells co-expressing LRRK2-GFP and EndoA1-mCherry, 37 °C

binding [1] | binding [2] | Substance
binds | binds | WT LRRK2-GFP (Leucine-Rich Repeat Kinase 2, wild type, GFP fusion) (from UniProt Q5S007 1-2527)
binds | binds | G2019S LRRK2-GFP (Parkinson's disease mutant of Leucine-Rich Repeat Kinase 2, GFP fusion) (from UniProt Q5S007 1-2527)
